Literature values in US8623415B2, “Method for producing biologically ingestible microparticles, biologically ingestible microparticles, and dispersion and pharmaceutical composition containing the same” (M. Technique Co., Ltd., priority 2007, dated 2014).

Conditions: rat; bulk powder of 20 to 30 μm atomized into powder of 270 nm

COc1ccc2cc([C@H](C)C(=O)O)ccc2c1 [naproxen]
absorption increase by atomizing: increased four times
